Values of other authors in US5981219A, “DNA molecules which code for a plastid 2-oxoglutarate/malate translocator” (Hoechst Schering Agrevo GmbH, priority 1919, dated 1999).
At least one compound was matched to its structure with a doubt left.

System: purified 2-oxoglutarate/malate translocator protein
Settings: liposomes preloaded with the indicated dicarboxylate; cited from earlier work

SMILES | transport activity, percentage of activity measured with malate-preloaded liposomes [%]
O=C(O)CCC(=O)C(=O)O [2-Oxoglutarate] | 41
N[C@@H](CCC(=O)O)C(=O)O [Glutamate] | 10
